From PMC3467072 (Nucleic Acids Research, 2012) come the findings set out here.

This test has as its target Wild-type Rv3066 (Mycobacterium tuberculosis, UniProt I6X658). Nature of the test: biochemical.

Compound `CSc1ccc2c(c1)N(CCC1CCCCN1C)c1ccccc1S2` (stereo not shown) [thioridazine] returned a Kd of 212 ± 34.2 µM.
